# Measured values: patent US5989832A, “Method for screening for non-tetracycline efflux pump inhibitors” (Microcide Pharmaceuticals, Inc., priority 1995, dated 1999)
# At least one compound was matched to its structure with a doubt left. Peptide text beside a SMILES is read from it.
# Columns and labels:
# E. coli K12 HN817 = experiment: Susceptibility to acridine orange, parent strain HN817 (Acr positive); type: cell-based
# E. coli HN818 = experiment: Susceptibility to acridine orange, AcrAB pump deficient strain HN818; type: cell-based
# Source text: The effect of L-phenylalanyl-L-arginyl-β-naphthylamide was also studied on an AcrAB pump deficient mutant of E. coli which was obtained by transposon mutagenesis in the laboratory of H. Nikaido.
# [1] = tested on: efflux pumps in P. aeruginosa PAO1, PAO4098E or K385; experiment: [3H]-tetracycline accumulation assay, strains that synthesize efflux pumps; type: cell-based, Pseudomonas aeruginosa; conditions: 1 mM or 0.1 mM compound
# [2] = tested on: P. aeruginosa strain 799/61; experiment: [3H]-tetracycline accumulation assay, strain 799/61 without efflux pumps; type: cell-based, Pseudomonas aeruginosa
# Experimental: A tetracycline accumulation assay was set up to measure the activity of efflux pumps in P. aeruginosa. The assay measures the accumulation of [3H]-tetracycline in bacteria and was optimized for measuring tetracycline accumulation in P. aeruginosa.
# A new tetracycline steady state equilibrium is reached when CCCP is added to the cell suspension and pH equilibrates in both sides of the membrane.
# [3] = tested on: efflux pumps in P. aeruginosa; experiment: Efflux pump function and proton gradient (conclusion from tetracycline accumulation); type: cell-based, Pseudomonas aeruginosa
# [4] = tested on: P. aeruginosa PAO1, K385 and PAO4098E; conditions: 20 μg/ml compound + sub-inhibitory tetracycline
# [5] = tested on: P. aeruginosa (four strains); experiment: Intrinsic antibacterial activity; conditions: both efflux pump hyperproducers (K385, PAO4098E)
# [6] = tested on: P. aeruginosa PAO236 NalA; experiment: Potentiation of ciprofloxacin, DNA gyrase mutant; conditions: DNA gyrase mutation (PAO236 NalA)
# [7] = tested on: P. aeruginosa PAO1 and K385; experiment: Potentiation of a variety of antibiotics (MIC), PAO1 and K385
# [8] = tested on: P. aeruginosa PAO1, K385 and PAO4098E; experiment: Susceptibility to tetracycline and ciprofloxacin / checkerboard assay, PAO1, K385 and PAO4098E
smiles,measurement,setting,value
N=C(N)NCCC[C@H](NC(=O)[C@@H](N)Cc1ccccc1)C(=O)Nc1ccc2ccccc2c1 [L-phenylalanyl-L-arginyl-β-naphthylamide] (HELM PEPTIDE1{F.R.[c1ccc2cc(N[*:1])ccc2c1]}$$$$V2.0),effect on susceptibility to acridine orange,E. coli K12 HN817,increase the susceptibility to acridine orange
same,effect on susceptibility to acridine orange,E. coli HN818,not affected
same,tetracycline accumulation,[1],increased dramatically
same,steady state level of tetracycline accumulation in the presence of CCCP,[2]; compound + CCCP,did not change the steady state level
same,steady-state level of tetracycline accumulation,[2]; compound alone,did not change the steady-state level of tetracycline accumulation
same,function of the efflux pumps,[3],inhibited the function of the efflux pumps
same,interference with proton gradients,[3],did not interfere with the proton gradients
same,effect on bacteriostatic activity of tetracycline,[4],restored completely the bacteriostatic activity of tetracycline
same,intrinsic susceptibility of efflux pump hyperproducers compared with wild type or pump deficient mutant,[5],much less susceptible
same,potentiation of ciprofloxacin,[6],potentiate ciprofloxacin
same,MIC of imipenem and gentamicin in the presence of the compound,[7]; drugs which are not substrates of the efflux pump,remained unchanged
same,potentiation of antibiotics pumped out of P. aeruginosa,"[7]; tetracycline, chloramphenicol, piperacillin, ceftazidime and seven fluoroquinolones including ciprofloxacin and norfloxacin",potentiate the activity of a variety of antibiotics
same,effect on susceptibility to tetracycline and ciprofloxacin,"[8]; PAO1 (wild type), K385 and PAO4098E (efflux pump overproducers)",increased the susceptibility
same,synergism with tetracycline or ciprofloxacin,[8]; checkerboard assay,synergism was also clearly demonstrated
